Experimental data from the supplement of paper PMC5949888.
Most values lie at the floor of the assay. Slopes are relative: functional sequences can read slightly below zero.

test system: Saccharomyces cerevisiae PS128 hsf1 delta, HSF1(1-493) fusion; experiment: growth estimate (transactivation domain function in HSF1 fusion, heat-shock survival) (a.u. (slope of normalised read count over time)); higher = stronger growth at 37°C, i.e. more transactivation activity; details: library: random library
Description: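 Random 60-nt DNA library encoding peptides of up to 20 aa, fused to the C-terminus of yeast HSF1 residues 1-493 (C-terminal TAD deleted) and expressed from the native HSF1 promoter on a CEN plasmid in hsf1-deleted S. cerevisiae PS128. Cells were selected at 37°C on -trp 5-FOA plates for 0, 2, 4, 6 and 8 days and amplicons were sequenced. Growth estimate is the slope of a robust linear fit of total-sum-normalised read counts (normalised to the first time point) over time, using at least 2 replicates. Sequences are classed functional (TAD activity) above a threshold of -0.13, set from stop-codon control sequences.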

Substance | growth estimate
EALCLKENPGLMSQKTRTAR | < -0.25
LLVTTTRHQL | < -0.25
GLRQFGAATERPGLACRGIS | < -0.25
NAGRS | < -0.25
SGGYQ | < -0.25
ILFGYGSRAT | < -0.25
CVQTSWLG | -0.234
HASTTVHCDRLLLESQGDLT | < -0.25
ATYESSWTLKLRTQWSQLGL | < -0.25
VEGCGLRKNQVQ | < -0.25
ASRWDSNWLQIKRDLDRSDR | < -0.25
GFVAISY | < -0.25
EDRGFYILQ | < -0.25
GRHATPTNETWFYKLLVFWC | < -0.25
RSLCDKVCNARLHDIIRLSF | < -0.25
LERPLRPLRAMLIWRSKVIN | < -0.25
TWADACGAG | < -0.25
RGWSILMDVGAERIRDKSFT | < -0.25
VMALTVHGVSQGHEDGES | < -0.25
LEAVVGLDVQRDFKTNRLPT | -0.243
DGIVWGRWFRTEPIEPLQQA | < -0.25
DNVPSY | -0.234
CCQICGIRVTLLSGMVMVLG | < -0.25
PALEA | < -0.25

Substance | growth estimate
HKDRTAGMLGRSLGRNAATV | < -0.25
GLSCSECGFSPGRLIWAGSM | < -0.25
GSDRPLFRSCDCPPPVYH | < -0.25
TFALT | < -0.25
RAFSVYNGKPPSHYLTVVIR | < -0.25
SRSITDGPVCSVN | < -0.25
AFLKRK | < -0.25
RVSKPMARMDA | < -0.25
PFEPVYT | < -0.25
EINPG | < -0.25
LRLMHQLCSVVHIKCRARRY | < -0.25
RLDGDLEILSRVPLVAIVPA | < -0.25
PNTVDVLMNPRHPA | < -0.25
WGFLWCCESGRAGAIVDHGC | < -0.25
QVMGVPTSAMRIRLSRWLEP | < -0.25
YKGHTTF | < -0.25
PLATGEIRY | < -0.25
SREI | < -0.25
SILQHWKTVQAVPLDPHRQP | < -0.25
SSWLCGGLLYNT | < -0.25
IYVLSGHAMAE | < -0.25
VLFPQPSCEEIGYRRLNSPY | < -0.25
DSDKYASAPLEFNHVAAGLR | < -0.25
RSSVCDVEKRYNRCFDQSTT | < -0.25

Substance | growth estimate
CLFCLI | -0.219
VIRFYSVLSLPHYRVMPLGC | < -0.25
DPKPLAVDAGKRYIRS | < -0.25
TRKGCFETALFSIGGNPANQ | < -0.25
IRAVSAARRSLAVPA | < -0.25
IVSVKPGEC | < -0.25
LECWRDGWVVARRRKPYQVN | < -0.25
WSRCPSGIPGSHIGGVALGK | < -0.25
TVSSSEEIGLT | < -0.25
NHGLSKR | -0.245
RLGHIALGTGPRQGGPRS | < -0.25
VCIHS | < -0.25
CHHSRSP | < -0.25
DRGKALNSAGPIQAAALNV | < -0.25
AIRCFKLGYCRQP | < -0.25
VTYGERGVAWPVR | < -0.25
NRDRLHVIEASLWSAAQRAR | < -0.25
VHS | < -0.25
SRAKTSKWGLG | -0.245
HGDRTLSRSVQIMRSMTRVR | < -0.25
SHWSYSGWC | < -0.25
GLLHFRG | < -0.25
SLSGTKYPCGKGRTA | < -0.25
SMAGVGTDDRHWG | < -0.25

A different layout for some results above.

| Substance | growth estimate |
| --- | --- |
| DRGKALNSAGPIQAAALNV | < -0.25 |
| VTYGERGVAWPVR | < -0.25 |

Next entries follow.

Substance | growth estimate
CGTSPSYTCVKAA | 0.0891
YGRPRIRVGRRKHRLAASAA | < -0.25
PRNSSSGLSMRLCVVHVNSD | < -0.25
RYLRLSSA | < -0.25
VTTEGVTGI | < -0.25
GFATGDSFMQAQPSLQLPLT | < -0.25
VCCGSIDLLKKSPL | < -0.25
GTSN | < -0.25
LAAGE | < -0.25
ATHRVRRRGTYGTTRTRWDT | < -0.25
SPVHCFTS | < -0.25
DCLGTLTVSQPLTLFL | < -0.25
PNPICLGLCDGVIRAWLVET | < -0.25
VGRSSKREGRLK | < -0.25
IVCM | < -0.25
YSLR | < -0.25
IIQIEKSARLCGAIGRPVRR | < -0.25
ALLVEYYREFLGKHS | < -0.25
YYVDTRSSRRTVDQWDLVYD | -0.231
PTILIGSGRVTGRMLRAIWW | < -0.25
LSRRNVGMRGGFARRRPPSH | < -0.25
LPLP | < -0.25
ALGMGGVKPGNGHINVDLAH | < -0.25
RGGR | < -0.25

A different layout for some results above:
Substance,growth estimate
CGTSPSYTCVKAA,0.0891
YGRPRIRVGRRKHRLAASAA,< -0.25

An excerpt of these results, tab-delimited.
Substance	growth estimate
PRNSSSGLSMRLCVVHVNSD	< -0.25
RYLRLSSA	< -0.25
VCCGSIDLLKKSPL	< -0.25
YSLR	< -0.25
PTILIGSGRVTGRMLRAIWW	< -0.25
LSRRNVGMRGGFARRRPPSH	< -0.25
RGGR	< -0.25

(listing goes on)

Substance | growth estimate
VRFLT | < -0.25
QNGISVSSLRLRRRGLLRSV | -0.246
SWGFDVTTFWLTEARIAAPG | < -0.25
KCRTWTTKNAGAMSFYRLFD | < -0.25
DKVSSGDADGRRGHRFLRGI | < -0.25
RTR | < -0.25
IPNQVRDVWVMRWQTARATA | < -0.25
FVEYP | < -0.25
THGYHPITIATFGVSFLIFL | < -0.25
GGRGDGRESPFKQRVVPDPT | < -0.25
RLQEKLLLGSGLGATVTRHT | < -0.25
TDGSSVVDILI | < -0.25
LDKVDAHRPSSVIVPPVKRN | < -0.25
LRIVQLAGVCRR | < -0.25
CPAEKVNDQHLIL | < -0.25
PCDVSGELITAWSCL | < -0.25
ELDRI | < -0.25
PNLLPKVCGERWVWNKRQQN | -0.231
GYNMKTGGERDRGVRSKSYR | < -0.25
TLCPPYICGAAYLTVTWCRE | < -0.25
WRIARSERRRTTQLRKYATR | < -0.25
GSSQMCCNTTRSEDP | -0.245
SFGGATTQ | < -0.25
VMSLLYALLLRPHRGEKSTG | < -0.25

Substance | growth estimate
AEELGEQVWLFTAAGPPRAS | -0.193
SKVGVIQYYSVPGTICNQAT | < -0.25
SRFGVKNLPLLRHRS | < -0.25
WVLVIIWLECDL | < -0.25
IFCMIRVGAEGSTWGARLRT | < -0.25
IQRLLSRRSHDPMRSSEASF | 0.161
SGPGWSARGTCLSSSYIVQC | < -0.25
KVRSQGRL | < -0.25
CLSSDGYGDRVPLHGDIKVL | < -0.25
LWSNLYGLNLVTSRVYSIWY | < -0.25
ILVRASSVRLVSKVQVGRNM | < -0.25
PHPERVRISIGVSPASRTVR | < -0.25
TVSHS | < -0.25
SSILSCIGDPGRL | < -0.25
VRRDELARNPKVSGSRWDMG | < -0.25
YSPVMDR | < -0.25
MTMRQLGIFRYA | < -0.25
KFTVRTVSHHILHAVLVLYR | < -0.25
VGIEKMQST | < -0.25
SCLRVPLDLGYMYSVLTIRY | < -0.25
PGRREVEVLDEHLELSPMIH | < -0.25
NTGILSPGYDQAPSTF | < -0.25
RRYAQRELAGSFDGQWS | < -0.25
THMLGMRIWIHKSGIKPGRV | < -0.25

Substance | growth estimate
HIYTDQTCTRLDRDVVSLGD | < -0.25
GPSGRSEVCDDVQSDIA | < -0.25
EGIVV | < -0.25
RSGAAMTYGRIVVPRTPYHR | < -0.25
CLLQDTVTSGFWAMRQEVAK | < -0.25
LRALSTRQPATVR | -0.231
THGVDEAQGEYIGFVNAPSG | < -0.25
HIRDQPAKFDSVGS | < -0.25
VDGHSVARDNYSVRRGQV | < -0.25
LSRVSSKSAGAYLEGGRARF | < -0.25
DCTGP | < -0.25
PGPGGRSQLQALAKRKQREV | < -0.25
CHLRLQVDSGLLCPNHRYSW | < -0.25
IFP | < -0.25
LLYH | < -0.25
KTRGYTAVAYVN | < -0.25
WFVGPISHINWVCKGTRSSS | < -0.25
HNSFESHIRLVSRYGSRFTY | < -0.25
SCTRLGRKRVRQVEPESGRA | < -0.25
IQTDEAATLNYGPVPRGSLD | < -0.25
LCLGLCVVGGLTLRCSTGML | < -0.25
TFDK | < -0.25
VYVIGSLGRASAGRVS | < -0.25
FLGLLLGSLACGSL | < -0.25

Substance | growth estimate
FGVLLLFELEVRERRHYRGP | < -0.25
KSSRA | < -0.25
TVEGNECVVLDVWHRYPSWC | < -0.25
NLYGPQV | < -0.25
LYEIRFRNEAEQVRAARPQR | < -0.25
DVRYLISQAK | < -0.25
VVDGPQCSGLAGGVTCDV | < -0.25
HKTIVQAKISYTIDRTQGWR | < -0.25
TLQFHAQAWLSNASRAPRTP | < -0.25
TTRFLRIHMCISHIRHWLQA | < -0.25
HGIAEGAMSFNASSNRCWRL | < -0.25
LRRPCTMAPSILDRFCHNIT | < -0.25
CCSSL | -0.209
APARKPDDTKVLERCLGKSV | < -0.25
LDRQTEGLSFTC | < -0.25
LQFPLLQLSEDLQQIMEDCT | < -0.25
FSTVTLTNRSPQSKPTFETA | < -0.25
RSVQFATSQRAWEGLCTWDV | -0.222
CSLIMTSHSAPHGLEASCCA | < -0.25
GVTKRTGLNGSYPRGFPVWN | < -0.25
LKGGRVASLRRKLEVPIWGC | < -0.25
